Assay results published in the supplement of paper PMC6078165.
Values are relative to the signal before dosing, not to a vehicle control; the signal also falls without drug.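 Fibroblast labels denote human fibroblasts, mainly primary ones from uterus (C12385, HUF), lung (H6013), bone (Hs27A), adrenal (HADF) and skin (WS1), plus mammary HMF and breast cancer-associated Hs343T. Cancer cells are basal-like or mesenchymal-like triple-negative breast cancer lines. A hit is a response shift exceeding 3x replicate standard deviation. The tissue of the other fibroblasts is not given here.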

Test system: BT20
Assay: relative JC-1 red fluorescence (viability) vs pre-drug, coculture with fibroblast (fraction); higher = more viable cancer cells
Conditions: 100 µM
Experimental: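 JC-1 labelled TNBC cells cocultured 1:1 (1,500 cells each) with CellTrace Violet stained primary or stromal fibroblasts in 384-well plates in FluoroBrite medium, treated with one of 42 anticancer drugs at 0.1, 1, 10 or 100 uM. JC-1 red fluorescence (mitochondrial integrity in cancer cells only) was read by plate reader every 8 h for 72 h. Values are normalised to each well's pre-drug value. The stock of one drug was tenfold lower, so its dose labels may be too high.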

Nc1ncn([C@@H]2O[C@H](CO)[C@@H](O)[C@H]2O)c(=O)n1 [Azacitidine]
relative JC-1 red fluorescence
Conditions | 8 h | 16 h | 24 h | 32 h | 40 h
coculture fibroblast: C12385 | 0.8596 | 0.707 | 0.664 | 0.617 | 0.58
coculture fibroblast: H6013 | 0.825 | 0.675 | 0.686 | 0.583 | 0.558
coculture fibroblast: H6019 | 0.791 | 0.622 | 0.585 | 0.507 | 0.476
coculture fibroblast: H6076 | 0.9958 | 0.779 | 0.562 | 0.524 | 0.504
coculture fibroblast: H6231 | 0.863 | 0.903 | 0.783 | 0.73766 | 0.69622
coculture fibroblast: HADF | 0.923 | 0.826 | 0.818 | 0.763 | 0.768
coculture fibroblast: HCFa | 0.822 | 0.619 | 0.558 | 0.502 | 0.477
coculture fibroblast: HCPF | 0.88 | 0.8199 | 0.728 | 0.682 | 0.652
coculture fibroblast: HHSteC | 0.8674 | 0.789 | 0.779 | 0.727 | –
coculture fibroblast: HMF | 0.9669 | 0.866 | 0.7634 | 0.72611 | –
coculture fibroblast: HPFa | 0.864 | 0.6341 | 0.615 | 0.546 | –
coculture fibroblast: HUF | 0.892 | 0.779 | 0.729 | 0.663 | –
coculture fibroblast: Hs5 | 0.879 | 0.785 | 0.684 | 0.652 | –
coculture fibroblast: Hs27A | 0.762 | 0.844 | 0.83 | 0.827 | –
coculture fibroblast: Hs343T | 0.9724 | 0.863 | 0.77 | 0.717 | –
coculture fibroblast: WS1 | 0.8169 | 0.667 | 0.618 | 0.555 | –
